# From PMC12040169 (PLOS Biology, 2025)
# This is one part of the list.
# System: T1, CTL2-GFP (C. trachomatis L2/434/Bu, GFP-expressing)
# T1 construct: L2/434/Bu, GFP-expressing
# Set-up: species or system HeLa; Intracellular C. trachomatis growth in HeLa cells, bulk GFP fluorescence relative to DMSO
# Details: bulk GFP, single well; 28.5 h, 10 µM; inhibitor
row,SMILES,% of control remaining [%]
1,Cc1cn2c3c(=O)n(CCN4CCOCC4)c(=O)n(C)c3nc2n1CC1CCCO1 (centres unmarked) [CBK269985],154.547
2,CC(=O)N1CCN([C@H]2[C@@H]3OC[C@@H](O3)[C@@H](NCC3CCCCC3)[C@@H]2O)CC1 [CBK288809],113.24
3,Cn1c(CN2CCN(S(=O)(=O)c3ccccc3)CC2)nc2cc([N+](=O)[O-])ccc21 [CBK268321],98.2186
4,O=C(c1ccc2ncccc2c1)N1CCN(C(=O)c2ccco2)CC1 [CBK144461],114.163
5,CC(=O)NCCSc1cc(N2CCCC2)ncn1 [CBK105621],171.584
6,Cc1c(Cc2c(Cl)cccc2Cl)c(=O)n(C)n1C [CBK113274],79.3514
7,COC(C)CN(C)C(=O)c1oc2cc(C)ccc2c1C (centres unmarked) [CBK282043],139.639
8,O=C(NCc1nnc(-c2cccs2)o1)C1c2ccccc2Oc2ccccc21 [CBK286297],120.635
9,Cn1ccnc1C(NC(=O)N1CCCCC1)c1ccc(F)c(F)c1 (centres unmarked) [CBK283832],95.2958
10,Cn1ccnc1C1(O)CCN(C(=O)Nc2ccccc2F)CC1 [CBK282280],73.6327
11,CC(C)NC(=O)N1CCCC2(C1)NCCc1c2[nH]c2ccccc12 (centres unmarked) [CBK046952],161.379
12,Cc1ccc(C(=O)C2=C(O)C(=O)N(CCCN(C)C)C2c2ccccn2)o1 (centres unmarked) [CBK269575],132.217
13,Cc1ccccc1-c1cc(C(=O)Nc2ccc(S(N)(=O)=O)cc2)c2cc(Cl)ccc2n1 [CBK267741],121.363
14,CC(C)CN1CCC[C@H]1c1nc(-c2ccc(-n3ccnc3)nc2)no1 [CBK288894],130.843
15,O=C(O)/C=C/C(=O)Nc1ccc(S(=O)(=O)NCc2ccco2)cc1 [CBK264500],120.995
16,CCNC(=O)N1CC2(CCN(CCOCC)CC2)c2ccccc21 [CBK136972],113.038
17,CC(C)N1CCC(CNC(=O)c2cccc(N3CCCC3=O)c2)CC1 [CBK282641],106.742
18,Cc1sc2ncnc(SCC(=O)Nc3sc4c(c3C#N)CCCC4)c2c1-c1ccccc1 [CBK265938],137.944
19,CN(C(=O)c1cc(S(=O)(=O)N2CCOCC2)ccc1F)C1CCCCC1 [CBK304580],105.96
20,COc1ccc(S(=O)(=O)NCCN2CCOCC2)c(C)c1C [CBK266479],137.958
21,O=C(Cn1cc(C(=O)NCc2ccccc2)ccc1=O)NC1(c2ccccc2)CCCC1 [CBK285753],112.556
22,NCc1oc(-c2ccccc2)cc1C(=O)O [CBK265941C],119.956
23,CC1(C)Cc2c(cnn2-c2ccc(F)cc2)C(NS(C)(=O)=O)C1 (centres unmarked) [CBK307403],130.195
24,CCCC(C)C(=O)Nc1ccncc1 (centres unmarked) [CBK057984],96.9285
25,O=S1(=O)C=C(N2CCCCCC2)CC1 [CBK025571C],142.421
26,CCc1nc2ccc(C(=O)Nc3ccc(NC(C)=O)cc3)cn2c1N(CC)Cc1ccc(OC)c(OC)c1 [CBK146994],97.9868
27,O=c1cc(O)c2ccccc2n1Cc1ccccc1Cl [CBK291255],133.707

row,SMILES,% of control remaining [%]
1,Nc1ccc(S(=O)(=O)O)c2cccc(S(=O)(=O)O)c12 [CBK261492N],100
2,COc1ccc([C@@]23CC[C@H](NC(=O)CSc4nccn4C)C[C@@H]2N(C)CC3)cc1OC [CBK036444],155.777
3,Cc1ccc(C(=O)Nc2nc(C)c(-c3n[nH]c(=S)n3C)s2)cn1 [CBK295327],133.999
4,O=[N+]([O-])c1ccccc1S(=O)(=O)Nc1ccc(S(=O)(=O)Nc2ccccc2)cc1 [CBK264796],119.437
5,CN1CCN(C(=O)CN(CC(=O)N2CCN(C)CC2)S(=O)(=O)c2ccc(Cl)cc2)CC1 [CBK269627],119.211
6,O=C(CN1CCCC1Cn1cncn1)NCCc1ccsc1 (centres unmarked) [CBK305113],124.76
7,CCN(CC)Cc1ccc(C(=O)N2CCC(c3ccncc3)CC2)o1 [CBK283051],81.729
8,COc1cc(C(c2c(C(=O)O)[nH]c3ccccc23)c2c(C(=O)O)[nH]c3ccccc23)cc(I)c1O [CBK267804],140.065
9,CSCCN1CCC(Oc2nccnc2OCCN2CCOCC2)CC1 [CBK082935],105.491
10,CS(=O)(=O)Nc1cccc2cc[nH]c12 [CBK159509],92.8808
11,CC(C)(C)c1ccc(C(=O)N2CCCCC2CO)cc1 (centres unmarked) [CBK073951],138.048
12,Nc1nc(N2CCCCC2)nc2ccccc12 [CBK012270],104.889
13,Cn1cncc1CN(CCCn1ccnc1)Cc1ccccc1Cl [CBK283041],137.292
14,Cc1nnc(SCC(=O)N2CCN(c3ccc(Cl)cc3)CC2)s1 [CBK307389],130.374
15,CSCCCNC(=O)c1ccc2c(c1)nc(N1CC[C@H](O)C1)n2C [CBK306807],97.471
16,CC(C)C(=O)N1CCC(n2nc(-c3cccs3)ccc2=O)CC1 [CBK284181],106.895
17,COc1ccc(C(=O)N2CCC3(CC2)NC(=O)c2cc(C)ccc2O3)cc1C [CBK166277],112.964
18,CC(C)C1OC(N2CCOCC2)=NC1=O (centres unmarked) [CBK070384],116.999
19,O=C(c1cnccc1C(F)(F)F)N1Cc2ccccc2C1 [CBK200323],123.16
20,O=C(Nc1nc(-c2cccnc2)cs1)c1ccccc1 [CBK287569],147.783
21,CCN(CC)C(=O)c1ccccc1NS(=O)(=O)c1ccc(C)cc1 [CBK045416],145.107
22,Cc1cccn2c(CN3CCCC(O)C3)c(C(=O)N3CCOCC3)nc12 (centres unmarked) [CBK306545],148.745
23,CCc1cc(Br)ccc1S(=O)(=O)NCCOc1ccccc1 [CBK044882],104.564
24,O=C(O)c1ccc(N2C(=O)C3C4C=CC(C4=C(c4ccccc4)c4ccccc4)C3C2=O)cc1 (centres unmarked) [CBK263030],112.578
25,CS(=O)(=O)Nc1nnc(C2CCCCC2)s1 [CBK069540],105.547
26,CCOc1cc(/C=C(/C#N)C(N)=S)ccc1OCC(=O)N1CCCC1 [CBK268765],137.845
27,Cc1cc(C)c2nc(O)nc(O)c2c1 [CBK017986],130.434

row,SMILES,% of control remaining [%]
1,O=C1CC(c2ccco2)Cc2c1cnn2-c1ccccc1 (centres unmarked) [CBK287860],116.277
2,CN1CCN(c2ccc(-c3cnc(N)c(NC4CCOCC4)n3)cc2)CC1 [CBK064114],171.701
3,CCCc1nnc(SCC(=O)Nc2ccc(CN3CCOCC3)cc2)[nH]1 [CBK305583],105.792
4,CCNC(=O)N[C@H]1CC[C@]2(C)CCC([C@H](C)C(=O)N3CCCCC3)[C@H](O)[C@H]2[C@@H]1C (some centres unmarked) [CBK289455],119.517
5,CCOc1cc(NC2CCN(C(=O)Cc3ccncc3)CC2)ncn1 [CBK304752],115.672
6,Cc1nc(S(=O)(=O)N2CCC3(CCCCC3)C2)cn1C [CBK306306],100.21
7,CCOC(=O)CCc1nc2ccccc2nc1O [CBK264526],121.547
8,O=C1CCCC[C@@H]2[C@@H](N1)[C@H](c1ccccc1)CN2Cc1ccnc2ccccc12 [CBK286280],128.171
9,CC(C)[C@H](CO)Nc1nc(-c2cccc3ccccc23)cnc1N [CBK063701],83.0447
10,CCCc1nn(CC(=O)NC(C)(C)C)c(=O)c2cc3ccsc3n12 [CBK284148],125.869
11,COc1ccc(OCC(F)(F)F)c(C(=O)N2CCSCC2)c1 [CBK005950],123.908
12,c1ccc2c(c1)CCN(Cc1nc3ccccc3[nH]1)C2 [CBK126396],107.829
13,Nc1nc(SCC(=O)c2ccc3c(c2)OCCO3)n[nH]1 [CBK266554],134.595
14,COc1cccc(Oc2cnc(-c3ccc(C(=O)N(C)C)cc3)c(N)n2)c1 [CBK145185],120.052
15,CS(=O)(=O)Nc1cccc(-c2cnc3[nH]c(=O)n(Cc4ccc(S(C)(=O)=O)cc4)c3n2)c1 [CBK065061],136.05
16,O=C(CCN1CCN2CCCCC2C1)N1c2ccccc2Sc2ccc(Cl)cc21 (centres unmarked) [CBK278257F],102.095
17,Cc1cn(C2CC(O)C(CNC(=O)C(F)(F)F)O2)c(=O)[nH]c1=O (centres unmarked) [CBK201200],152.467
18,CCOc1ccc(NC(=O)NC(=O)C2CCN(C(C)=O)CC2)cc1 [CBK034852],92.192
19,Cc1cc(C(=O)NCc2c(-c3ccccc3)noc2C)n[nH]1 [CBK144076],95.8251
20,CN(C)c1nc(N2CCOCC2)c(C#N)c(=O)o1 [CBK007447],97.5317
21,CSc1nc(N)c2c3c(sc2n1)CN(C)CC3 [CBK018303],102.195
22,CC1(C)NC(C)(C)C(=N\O)/C(=N\O)C/1=N\O [CBK261512],93.1416
23,Cc1ccc(C(=O)C2=C(O)C(=O)N(Cc3cccnc3)C2c2cccc([N+](=O)[O-])c2)cc1 (centres unmarked) [CBK264593],100
24,CCN(CC)CCN1CCN(c2cc(-c3cc(C(F)(F)F)cc(C(F)(F)F)c3)ncn2)CC1 [CBK091195],188.408
25,COc1ccccc1-c1c(O)n[nH]c1C(C)C [CBK075133],83.124
26,COc1ccc(NC2=NC(=O)CC(C(=O)Nc3ccc(C)c(C)c3)N2)cc1 (centres unmarked) [CBK269359],155.028

# Sorted by molar mass (rising): part of the list above
row,SMILES,% of control remaining [%]
22,CC1(C)NC(C)(C)C(=N\O)/C(=N\O)C/1=N\O [CBK261512],93.1416
25,COc1ccccc1-c1c(O)n[nH]c1C(C)C [CBK075133],83.124
20,CN(C)c1nc(N2CCOCC2)c(C#N)c(=O)o1 [CBK007447],97.5317
12,c1ccc2c(c1)CCN(Cc1nc3ccccc3[nH]1)C2 [CBK126396],107.829
1,O=C1CC(c2ccco2)Cc2c1cnn2-c1ccccc1 (centres unmarked) [CBK287860],116.277
13,Nc1nc(SCC(=O)c2ccc3c(c2)OCCO3)n[nH]1 [CBK266554],134.595
19,Cc1cc(C(=O)NCc2c(-c3ccccc3)noc2C)n[nH]1 [CBK144076],95.8251
6,Cc1nc(S(=O)(=O)N2CCC3(CCCCC3)C2)cn1C [CBK306306],100.21
9,CC(C)[C@H](CO)Nc1nc(-c2cccc3ccccc23)cnc1N [CBK063701],83.0447
18,CCOc1ccc(NC(=O)NC(=O)C2CCN(C(C)=O)CC2)cc1 [CBK034852],92.192
11,COc1ccc(OCC(F)(F)F)c(C(=O)N2CCSCC2)c1 [CBK005950],123.908
17,Cc1cn(C2CC(O)C(CNC(=O)C(F)(F)F)O2)c(=O)[nH]c1=O (centres unmarked) [CBK201200],152.467
5,CCOc1cc(NC2CCN(C(=O)Cc3ccncc3)CC2)ncn1 [CBK304752],115.672
10,CCCc1nn(CC(=O)NC(C)(C)C)c(=O)c2cc3ccsc3n12 [CBK284148],125.869
14,COc1cccc(Oc2cnc(-c3ccc(C(=O)N(C)C)cc3)c(N)n2)c1 [CBK145185],120.052
26,COc1ccc(NC2=NC(=O)CC(C(=O)Nc3ccc(C)c(C)c3)N2)cc1 (centres unmarked) [CBK269359],155.028
2,CN1CCN(c2ccc(-c3cnc(N)c(NC4CCOCC4)n3)cc2)CC1 [CBK064114],171.701
8,O=C1CCCC[C@@H]2[C@@H](N1)[C@H](c1ccccc1)CN2Cc1ccnc2ccccc12 [CBK286280],128.171
4,CCNC(=O)N[C@H]1CC[C@]2(C)CCC([C@H](C)C(=O)N3CCCCC3)[C@H](O)[C@H]2[C@@H]1C (some centres unmarked) [CBK289455],119.517
16,O=C(CCN1CCN2CCCCC2C1)N1c2ccccc2Sc2ccc(Cl)cc21 (centres unmarked) [CBK278257F],102.095
23,Cc1ccc(C(=O)C2=C(O)C(=O)N(Cc3cccnc3)C2c2cccc([N+](=O)[O-])c2)cc1 (centres unmarked) [CBK264593],100
15,CS(=O)(=O)Nc1cccc(-c2cnc3[nH]c(=O)n(Cc4ccc(S(C)(=O)=O)cc4)c3n2)c1 [CBK065061],136.05
24,CCN(CC)CCN1CCN(c2cc(-c3cc(C(F)(F)F)cc(C(F)(F)F)c3)ncn2)CC1 [CBK091195],188.408
